Experimental data: patent publication US20150159134A1, “METHOD FOR PRODUCING RETINAL PIGMENT EPITHELIAL CELLS” (PFIZER LIMITED, priority 2013, published 2015)
At least one compound was matched to its structure with a doubt left.

Test system: RPE cells generated by spontaneous differentiation
Assay: Expansion of RPE cells with cAMP or Forskolin (Ki67, Hoescht nuclei, PMEL17)
Assay type: cell-based, human

With C=C[C@@]1(C)CC(=O)[C@]2(O)[C@@]3(C)[C@@H](O)CCC(C)(C)[C@@H]3[C@H](O)[C@H](OC(C)=O)[C@@]2(C)O1 [Forskolin] the “PMEL17 expression (immunostaining)” value (10 μM Forskolin, Day 14, seeded at 20000 cells/cm^2) was “increase in PMEL17 expression” and the cell yield (Forskolin, effect similar to cAMP) was “increasing cell yield”.
